Values quoted from earlier work, collected in patent US9199026B2, “Modular extracorporeal systems and methods for treating blood-borne diseases” (SOMERSET GROUP ENTERPRISES, INC., priority 2011, dated 2015).

Conditions: no group stated

## CCC[C@@H]1C[C@@H](C(=O)N[C@@H]([C@H]2O[C@H](SC)[C@H](O)[C@@H](O)[C@H]2O)[C@H](C)Cl)N(C)C1 [Clindamycin]
  pKa: 7.5
